The text below walks through data of the supplement of paper PMC11637464.

Where a name gives a salt, the structure may show the parent alone. The list shows a part of the results. Many values rest on one well or one pass, so single values are uncertain.

One assay has as its system primary mouse Muller glia with Ascl1 overexpression. Briefly: total cells recovered per well; higher = more cells recovered. Particulars: 0.1 µM.
With `c1cc(-c2cnn3cc(-c4ccc(OCCN5CCCCC5)cc4)cnc23)ccn1` [Dorsomorphin dihydrochloride] (collection day: 1), the “total cells recovered per well” value turned out to be 76.
Take `NCCNS(=O)(=O)c1ccc(Cl)c2ccncc12` [CKI 7 dihydrochloride] (collection day: 2): the “total cells recovered per well” value was 150.
In the case of `CC1=C(C(=O)Nc2cc3cn[nH]c3cc2F)C(c2ccc(C(F)(F)F)cc2)CC(=O)N1` (stereo not drawn) (collection day: 2), the “total cells recovered per well” value was 68.
Still for that read-out and setting: the result for `O=C(NNc1ccccc1)c1ccncc1` [PluriSln 1] (collection day: 2) reads 69.
The same measure, in the same setting: the figure for `O=S(=O)(NCCNC/C=C/c1ccc(Br)cc1)c1cccc2cnccc12` [H 89 dihydrochloride] (collection day: 1) is 92.
Still for that read-out and setting: the result for `CCCCC(CC)CNC(=N)NC(=N)NCCCCCCNC(=N)NC(=N)NCC(CC)CCCC` (stereo not drawn) [Alexidine dihydrochloride] (collection day: 2) reads 94; that for `CCN(CC)S(=O)(=O)Nc1cccc(-c2ccc3c(NC(=O)C4CC4)n[nH]c3c2)c1` (collection day: 2), 125; that for `O=C1NC(=O)c2c1c(-c1ccccc1)cc1[nH]c3ccc(O)cc3c21` (collection day: 1), 68.
Take `Cc1ccccc1NC(=O)Nc1ccc(CC(=O)N(C)[C@@H](CC(C)C)C(=O)NCC[C@H](NC(=O)[C@@H]2CCCN2S(=O)(=O)c2cc(Cl)cc(Cl)c2)C(=O)O)cc1` (collection day: 2): the “total cells recovered per well” value came to 109.
For the compound `CC(NC(=O)C(OC(=O)C(C)NC(=O)OC(C)(C)C)C(C)C)C(=O)OC(C(=O)O)C(C)C` (stereo not drawn) (collection day: 2), the “total cells recovered per well” value turned out to be 62.
As for `Cc1c(C)c2c(c(C)c1O)CCC(C)(COc1ccc(CC3SC(=O)NC3=O)cc1)O2` (stereo not drawn) [Troglitazone] (collection day: 1), the “total cells recovered per well” value was determined as 92.
Still for that read-out and setting: the result for `CN(C)c1ccccc1CN1CCCN(Cc2ccccc2N(C)C)C1c1ccncc1` (collection day: 1) reads 72; that for `NC(=O)c1ccc(-c2nc(-c3ccccn3)c(-c3ccc4c(c3)OCO4)[nH]2)cc1` (collection day: 1), 59.
Still for that read-out and setting: the result for `COc1ccn2ncc(-c3nc4[nH]nc(NC(=O)c5ccc(F)cc5)c4cc3F)c2c1` (collection day: 2) reads 110; that for `C[C@@H](N)[C@H]1CC[C@H](C(=O)Nc2ccncc2)CC1` (collection day: 1), 59; that for `CC(=O)Nc1ccc(C(=O)Nc2ccccc2N)cc1` (collection day: 1), 76.
On the same count and under the same terms, the figure for `CNC1CCC(N(Cc2cc(-c3ccncc3)ccc2OC)C(=O)c2sc3c(F)ccc(F)c3c2Cl)CC1` (stereo not drawn) (collection day: 2) is 113; for `c1ccc2c(-c3cnn4cc(-c5ccc(N6CCNCC6)cc5)cnc34)ccnc2c1` (collection day: 2) it is 76.
For `CCCCCC[C@@H]([C@@H](C)O)n1cnc2c(N)ncnc21` [EHNA hydrochloride] (collection day: 1), the “total cells recovered per well” value came out at 43.
Take `CC(ONC(=O)c1cc(C(F)(F)F)cc(C(F)(F)F)c1)C(=O)Nc1ccc(Cl)cc1` (stereo not drawn) (collection day: 2): the “total cells recovered per well” value is 69.
Still for that read-out and setting: the result for `O=c1cc(N2CCOCC2)oc2c(-c3ccccc3)cccc12` (collection day: 1) reads 66; that for `CNCCC(Oc1ccc(C(F)(F)F)cc1)c1ccccc1` (stereo not drawn) [Fluoxetine hydrochloride] (collection day: 1), 52.

Staying with this assay, now noted: 1 µM.
For the compound `c1cc(-c2cnn3cc(-c4ccc(OCCN5CCCCC5)cc4)cnc23)ccn1` [Dorsomorphin dihydrochloride] (collection day: 1), the “total cells recovered per well” value stood at 81.
The same measure, in the same setting: the result for `NCCNS(=O)(=O)c1ccc(Cl)c2ccncc12` [CKI 7 dihydrochloride] (collection day: 2) reads 115; that for `CC1=C(C(=O)Nc2cc3cn[nH]c3cc2F)C(c2ccc(C(F)(F)F)cc2)CC(=O)N1` (stereo not drawn) (collection day: 2), 81; that for `O=C(NNc1ccccc1)c1ccncc1` [PluriSln 1] (collection day: 2), 106.
In the case of `O=S(=O)(NCCNC/C=C/c1ccc(Br)cc1)c1cccc2cnccc12` [H 89 dihydrochloride] (collection day: 1), the “total cells recovered per well” value came to 79.
On the same count and under the same terms, the result for `CCN(CC)S(=O)(=O)Nc1cccc(-c2ccc3c(NC(=O)C4CC4)n[nH]c3c2)c1` (collection day: 2) reads 111; that for `Cc1ccccc1NC(=O)Nc1ccc(CC(=O)N(C)[C@@H](CC(C)C)C(=O)NCC[C@H](NC(=O)[C@@H]2CCCN2S(=O)(=O)c2cc(Cl)cc(Cl)c2)C(=O)O)cc1` (collection day: 2), 115; that for `CC(NC(=O)C(OC(=O)C(C)NC(=O)OC(C)(C)C)C(C)C)C(=O)OC(C(=O)O)C(C)C` (stereo not drawn) (collection day: 2), 64.
For `NC(=O)c1ccc(-c2nc(-c3ccccn3)c(-c3ccc4c(c3)OCO4)[nH]2)cc1` (collection day: 1), the “total cells recovered per well” value turned out to be 65.
On the same count and under the same terms, the figure for `COc1ccn2ncc(-c3nc4[nH]nc(NC(=O)c5ccc(F)cc5)c4cc3F)c2c1` (collection day: 2) is 175.
On the same count and under the same terms, the result for `CC(=O)Nc1ccc(C(=O)Nc2ccccc2N)cc1` (collection day: 1) reads 94; that for `CNC1CCC(N(Cc2cc(-c3ccncc3)ccc2OC)C(=O)c2sc3c(F)ccc(F)c3c2Cl)CC1` (stereo not drawn) (collection day: 2), 83.
Same read-out and setting: the result for `CCCCCC[C@@H]([C@@H](C)O)n1cnc2c(N)ncnc21` [EHNA hydrochloride] (collection day: 1) reads 51; that for `CC(ONC(=O)c1cc(C(F)(F)F)cc(C(F)(F)F)c1)C(=O)Nc1ccc(Cl)cc1` (stereo not drawn) (collection day: 2), 115.
Turning to `O=c1cc(N2CCOCC2)oc2c(-c3ccccc3)cccc12` (collection day: 1), the “total cells recovered per well” value worked out at 72.
On the same count and under the same terms, the figure for `CNCCC(Oc1ccc(C(F)(F)F)cc1)c1ccccc1` (stereo not drawn) [Fluoxetine hydrochloride] (collection day: 1) is 90.
